Measurements reported in paper PMC7599336.
No constants are given. Whether binding was seen depends on the method and setting. Binding seen in cells or lysates may run through a third protein. Some binding calls cover weakened binding; strength is not graded here.

Protein sequences, listed by entry. Tags and fused reporters are not part of them.
UniProt P27986: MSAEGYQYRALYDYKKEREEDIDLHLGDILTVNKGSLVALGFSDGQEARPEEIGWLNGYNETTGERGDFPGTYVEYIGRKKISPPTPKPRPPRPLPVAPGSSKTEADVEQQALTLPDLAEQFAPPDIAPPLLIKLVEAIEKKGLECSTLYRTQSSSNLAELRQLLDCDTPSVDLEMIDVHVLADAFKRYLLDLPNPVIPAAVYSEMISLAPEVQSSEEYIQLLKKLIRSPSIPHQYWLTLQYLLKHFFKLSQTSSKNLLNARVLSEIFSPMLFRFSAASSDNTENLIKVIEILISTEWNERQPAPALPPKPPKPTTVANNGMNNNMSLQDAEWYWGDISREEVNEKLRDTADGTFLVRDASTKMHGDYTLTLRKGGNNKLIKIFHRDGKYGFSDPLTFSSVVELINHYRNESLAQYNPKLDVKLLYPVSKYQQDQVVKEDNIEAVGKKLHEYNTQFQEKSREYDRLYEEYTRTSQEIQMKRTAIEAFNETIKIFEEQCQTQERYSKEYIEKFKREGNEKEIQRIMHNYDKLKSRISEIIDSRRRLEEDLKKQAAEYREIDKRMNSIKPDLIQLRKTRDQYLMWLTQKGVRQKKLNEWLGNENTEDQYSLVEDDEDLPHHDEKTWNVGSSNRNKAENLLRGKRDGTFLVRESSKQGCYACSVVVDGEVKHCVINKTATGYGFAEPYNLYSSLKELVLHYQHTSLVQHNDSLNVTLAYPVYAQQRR

Tests used:
[1] = target: T1, Proline rich 11 (PRR11), endogenous (human (endogenous in MCF7 and HCC1428)) (UniProt Q96HE9); assay: co-IP; MCF7 parental, MCF7 LTED, HCC1428 parental and HCC1428 LTED lysates precipitated with PRR11 or IgG antibodies (Dynabeads Protein G, 1 mg lysate, overnight 4 °C), immunoblot
T1 sequence: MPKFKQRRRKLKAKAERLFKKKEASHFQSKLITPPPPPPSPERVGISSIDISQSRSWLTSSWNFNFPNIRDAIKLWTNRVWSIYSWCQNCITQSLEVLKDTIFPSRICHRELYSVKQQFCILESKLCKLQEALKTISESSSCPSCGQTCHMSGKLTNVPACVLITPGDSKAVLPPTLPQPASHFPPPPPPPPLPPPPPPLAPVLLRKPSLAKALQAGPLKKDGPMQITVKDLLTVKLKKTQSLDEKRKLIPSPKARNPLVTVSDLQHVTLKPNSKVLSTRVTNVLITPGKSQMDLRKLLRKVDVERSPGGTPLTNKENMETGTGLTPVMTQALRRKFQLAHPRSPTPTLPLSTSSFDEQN

[2] = target: T1, Proline rich 11 (PRR11), endogenous (human (endogenous in MCF7 and HCC1428)); assay: proximity ligation; MCF7 LTED cells, endogenous proteins, PRR11 and p85 antibodies, Duolink In Situ Red
[3] = target: p85α (PIK3R1), Flag-tagged (pLenti6.3-PIK3R1-Flag) and doxycycline-inducible HA-tagged (pIND-PIK3R1-HA), in MCF7 LTED cells (UniProt P27986); assay: co-IP; MCF7 LTED stably transduced with pIND-PIK3R1-HA and pLenti6.3-PIK3R1-Flag, PRR11 siRNA (0, 1, 5, 25 pM) for 48 h with 2 µg/mL doxycycline; lysates precipitated with HA or Flag antibodies, immunoblot
[4] = target: p85α (PIK3R1), Flag-tagged (pLenti7.3-PIK3R1-Flag), in HEK293 (UniProt P27986); assay: co-IP; HEK293 co-transduced with pLenti7.3-PIK3R1-Flag, -PIK3R1-HA and pLX302-PRR11-V5 (0, 0.25, 0.5, 1 µg); lysates precipitated with HA or Flag antibodies, Flag and HA immunoblot
[5] = target: p85α (PIK3R1), Flag-tagged (pLenti7.3-PIK3R1-Flag), in HEK293 (UniProt P27986); assay: proximity ligation; HEK293 cells transfected with pLenti7.3-PIK3R1-Flag and pLenti7.3-PIK3R1-HA, with or without pLX302-PRR11-V5; HA and Flag antibodies, Duolink In Situ Red

p85α regulatory subunit of PI3K, endogenous (from UniProt P27986 1-724)
binding [1]: binds
binding [2]: binds

p85α (PIK3R1), Flag-tagged (pLenti6.3-PIK3R1-Flag) and doxycycline-inducible HA-tagged (pIND-PIK3R1-HA), in MCF7 LTED cells (from UniProt P27986 1-724)
binding [3]: binds

p85α (PIK3R1), Flag-tagged (pLenti7.3-PIK3R1-Flag), in HEK293 (from UniProt P27986 1-724)
binding [4]: binds
binding [5]: binds
